# This is one part of the list.
# Key:
# Test in all cases: glycan array binding signal (z-score within array); higher = stronger binding
# Details in all cases: glycan notation: IUPAC condensed, linker removed
# [1] = biological target: Neu5Ac(a2-6)Gal(b1-4)GlcNAc(b1-3)Gal(b1-4)GlcNAc(b1-6)[Gal(b1-3)]GalNAc
# Method in brief: (§1)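 Glycan array data came from 3228 arrays in the Consortium for Functional Glycomics database, and only arrays with an available protein sequence were kept. Glycan names were put into IUPAC-condensed notation, and columns mapping to the same glycan were averaged. The binding signal is a within-array Z-score, averaged across arrays of one protein sequence run at different concentrations or buffers and across linkers. A negative Z-score can be read as non-binding.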
# [2] = biological target: Neu5Ac(a2-6)Gal(b1-4)GlcNAc(b1-3)Gal(b1-4)[Fuc(a1-3)]GlcNAc(b1-3)Gal(b1-4)[Fuc(a1-3)]GlcNAc
# Method in brief: as §1
# [3] = biological target: Neu5Ac(a2-6)Gal(b1-4)GlcNAc(b1-3)GalNAc
# Method in brief: as §1
# [4] = biological target: Neu5Ac(a2-6)Gal(b1-4)GlcNAc(b1-3)[Neu5Ac(a2-6)Gal(b1-4)GlcNAc(b1-6)]GalNAc
# Method in brief: as §1
# [5] = biological target: Neu5Ac(a2-6)Gal(b1-4)GlcNAc(b1-6)GalNAc
# Method in brief: as §1
# [6] = biological target: Neu5Ac(a2-6)Gal(b1-4)GlcNAc(b1-6)[Gal(b1-3)GlcNAc(b1-3)]Gal(b1-4)Glc
# Method in brief: as §1
# [7] = biological target: Neu5Ac(a2-6)Gal(b1-4)GlcNAc(b1-6)[Gal(b1-3)]GalNAc
# Method in brief: as §1
# [8] = biological target: Neu5Ac(a2-6)Gal(b1-4)GlcNAc6S
# Method in brief: as §1
# [9] = biological target: Neu5Ac(a2-6)GalNAc
# Method in brief: as §1
# [10] = biological target: Neu5Ac(a2-6)GalNAc(b1-4)GlcNAc
# Method in brief: as §1
# [11] = biological target: Neu5Ac(a2-6)GalNAc(b1-4)GlcNAc6S
# Method in brief: as §1
# [12] = biological target: Neu5Ac(a2-6)GlcNAc(b1-4)GlcNAc
# Method in brief: as §1
# [13] = biological target: Neu5Ac(a2-6)GlcNAc(b1-4)GlcNAc(b1-4)GlcNAc
# Method in brief: as §1
# [14] = biological target: Neu5Ac(a2-8)Neu5Ac
# Method in brief: as §1
# [15] = biological target: Neu5Ac(a2-8)Neu5Ac(a2-3)Gal(b1-3)GalNAc(b1-4)[Neu5Ac(a2-3)]Gal(b1-4)Glc
# Method in brief: as §1
# [16] = biological target: Neu5Ac(a2-8)Neu5Ac(a2-3)Gal(b1-3)GalNAc(b1-4)[Neu5Ac(a2-8)Neu5Ac(a2-3)]Gal(b1-4)Glc
# Method in brief: as §1
# [17] = biological target: Neu5Ac(a2-8)Neu5Ac(a2-3)Gal(b1-4)Glc
# Method in brief: as §1
# [18] = biological target: Neu5Ac(a2-8)Neu5Ac(a2-3)Gal(b1-4)GlcNAc
# Method in brief: as §1
# [19] = biological target: Neu5Ac(a2-8)Neu5Ac(a2-3)[Gal(b1-3)GalNAc(b1-4)]Gal(b1-4)Glc
# Method in brief: as §1
# [20] = biological target: Neu5Ac(a2-8)Neu5Ac(a2-3)[GalNAc(b1-4)]Gal(b1-4)Glc
# Method in brief: as §1
# [21] = biological target: Neu5Ac(a2-8)Neu5Ac(a2-8)Neu5Ac
# Method in brief: as §1
# [22] = biological target: Neu5Ac(a2-8)Neu5Ac(a2-8)Neu5Ac(a2-3)Gal(b1-4)Glc
# Method in brief: as §1
# [23] = biological target: Neu5Ac(a2-8)Neu5Ac(a2-8)Neu5Ac(a2-3)[Gal(b1-3)GalNAc(b1-4)]Gal(b1-4)Glc
# Method in brief: as §1
# [24] = biological target: Neu5Ac(a2-8)Neu5Ac(a2-8)Neu5Ac(a2-3)[GalNAc(b1-4)]Gal(b1-4)Glc
# Method in brief: as §1
# [25] = biological target: Neu5Ac(a2-8)Neu5Ac(a2-8)Neu5Ac(a2-8)Neu5Ac(a2-3)[GalNAc(b1-4)]Gal(b1-4)Glc
# Method in brief: as §1
# [26] = biological target: Neu5Ac(a2-8)Neu5Gc(a2-3)Gal(b1-4)GlcNAc
# Method in brief: as §1
# [27] = biological target: Neu5Ac(b2-6)Gal(b1-4)GlcNAc
# Method in brief: as §1
# [28] = biological target: Neu5Ac(b2-6)GalNAc
# Method in brief: as §1
# [29] = biological target: Neu5Ac9Ac(a2-3)Gal(b1-3)GlcNAc
# Method in brief: as §1
# [30] = biological target: Neu5Ac9Ac(a2-3)Gal(b1-4)GlcNAc
# Method in brief: as §1
# [31] = biological target: Neu5Ac9Ac(a2-6)Gal(b1-4)GlcNAc
# Method in brief: as §1
# [32] = biological target: Neu5Gc(a2-3)Gal(b1-3)GlcNAc
# Method in brief: as §1
# [33] = biological target: Neu5Gc(a2-3)Gal(b1-3)[Fuc(a1-4)]GlcNAc
# Method in brief: as §1
# [34] = biological target: Neu5Gc(a2-3)Gal(b1-4)Glc
# Method in brief: as §1
# [35] = biological target: Neu5Gc(a2-3)Gal(b1-4)GlcNAc
# Method in brief: as §1
# [36] = biological target: Neu5Gc(a2-3)Gal(b1-4)GlcNAc(b1-3)Gal(b1-4)GlcNAc(b1-2)Man(a1-3)[Neu5Gc(a2-3)Gal(b1-4)GlcNAc(b1-3)Gal(b1-4)GlcNAc(b1-2)Man(a1-6)]Man(b1-4)GlcNAc(b1-4)GlcNAc
# Method in brief: as §1
# [37] = biological target: Neu5Gc(a2-3)Gal(b1-4)[Fuc(a1-3)]GlcNAc
# Method in brief: as §1
# [38] = biological target: Neu5Gc(a2-6)Gal(b1-4)GlcNAc
# Method in brief: as §1
# [39] = biological target: Neu5Gc(a2-6)GalNAc
# Method in brief: as §1
# [40] = biological target: Neu5Gc(a2-8)Neu5Ac(a2-3)Gal(b1-4)GlcNAc
# Method in brief: as §1
# [41] = biological target: Neu5Gc(a2-8)Neu5Gc(a2-3)Gal(b1-4)GlcNAc
# Method in brief: as §1
# [42] = biological target: Neu5Gc(a2-8)Neu5Gc(a2-3)Gal(b1-4)GlcNAc(b1-3)Gal(b1-4)GlcNAc
# Method in brief: as §1
# [43] = biological target: Neu5Gc(a2-8)Neu5Gc(a2-6)Gal(b1-4)GlcNAc
# Method in brief: as §1
# [44] = biological target: Neu5Gc(b2-6)Gal(b1-4)GlcNAc
# Method in brief: as §1
binder,measurement,setting,value
KISKRILTGKK [NK11 (Sus scrofa)],glycan array binding signal (z-score),[1],-0.128
same,glycan array binding signal (z-score),[2],-0.044
same,glycan array binding signal (z-score),[3],0.966
same,glycan array binding signal (z-score),[4],0.531
same,glycan array binding signal (z-score),[5],-0.246
same,glycan array binding signal (z-score),[6],-0.538
same,glycan array binding signal (z-score),[7],-0.327
same,glycan array binding signal (z-score),[8],0.729
same,glycan array binding signal (z-score),[9],0.142
same,glycan array binding signal (z-score),[10],-0.765
same,glycan array binding signal (z-score),[11],-0.697
same,glycan array binding signal (z-score),[12],0.751
same,glycan array binding signal (z-score),[13],-0.7
same,glycan array binding signal (z-score),[14],-0.559
same,glycan array binding signal (z-score),[15],0.326
same,glycan array binding signal (z-score),[16],-0.754
same,glycan array binding signal (z-score),[17],-0.177
same,glycan array binding signal (z-score),[18],-1.78
same,glycan array binding signal (z-score),[19],-0.681
same,glycan array binding signal (z-score),[20],-0.123
same,glycan array binding signal (z-score),[21],0.225
same,glycan array binding signal (z-score),[22],-0.187
same,glycan array binding signal (z-score),[23],-0.428
same,glycan array binding signal (z-score),[24],1.29
same,glycan array binding signal (z-score),[25],0.225
same,glycan array binding signal (z-score),[26],-2.12
same,glycan array binding signal (z-score),[27],0.339
same,glycan array binding signal (z-score),[28],1.04
same,glycan array binding signal (z-score),[29],-0.131
same,glycan array binding signal (z-score),[30],0.556
same,glycan array binding signal (z-score),[31],0.883
same,glycan array binding signal (z-score),[32],0.339
same,glycan array binding signal (z-score),[33],0.405
same,glycan array binding signal (z-score),[34],0.165
same,glycan array binding signal (z-score),[35],0.063
same,glycan array binding signal (z-score),[36],1.22
same,glycan array binding signal (z-score),[37],0.298
same,glycan array binding signal (z-score),[38],-0.07
same,glycan array binding signal (z-score),[39],0.082
same,glycan array binding signal (z-score),[40],-0.047
same,glycan array binding signal (z-score),[41],-0.325
same,glycan array binding signal (z-score),[42],-1.28
same,glycan array binding signal (z-score),[43],-1.42
same,glycan array binding signal (z-score),[44],-0.146

# Given as tab-separated lines: entries from further up.
binder	measurement	setting	value
KISKRILTGKK [NK11 (Sus scrofa)]	glycan array binding signal (z-score)	[38]	-0.07
same	glycan array binding signal (z-score)	[39]	0.082

# From the supplement of paper PMC8728848
